From US20170160285A1 (VIB VZW, published 2017)
No constants are given. Whether binding was seen depends on the method and setting. Some entries that bind do so weakly or less than the wild type.

The chains behind the UniProt entries cited, without tags or fusion partners.
UniProt P10824: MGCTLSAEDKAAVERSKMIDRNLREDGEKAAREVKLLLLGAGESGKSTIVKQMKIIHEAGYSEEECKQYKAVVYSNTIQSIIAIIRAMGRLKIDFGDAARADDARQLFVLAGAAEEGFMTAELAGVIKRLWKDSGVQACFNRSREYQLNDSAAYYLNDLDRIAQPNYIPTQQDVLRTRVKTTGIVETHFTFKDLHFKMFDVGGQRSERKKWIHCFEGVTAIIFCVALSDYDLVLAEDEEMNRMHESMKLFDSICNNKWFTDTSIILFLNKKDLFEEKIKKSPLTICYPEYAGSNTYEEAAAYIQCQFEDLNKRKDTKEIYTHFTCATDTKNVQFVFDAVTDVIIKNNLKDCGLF

Molecular target: Recombinant Gαi1 (heterotrimeric G protein alpha subunit i1) (rat) (UniProt P10824)
Experiment: size exclusion chromatography of the RIC8A/Gαi1 complex

B1: Recombinant rat RIC8A (resistance to inhibitors of cholinesterase 8A) (protein, UniProt Q80ZG1 1-491, looked up)
chain: MEPRAVADALETGEEDAVTEALRSFNREHSQSFTFDDAQQEDRKRLAKLLVSVLEQGLSPKHRVTWLQTIRILSRDRSCLDSFASRQSLHALACYADIAISEEPIPQPPDMDVLLESLKCLCNLVLSSPTAQMLAAEARLVVRLAERVGLYRKRSYPHEVQFFDLRLLFLLTALRTDVRQQLFQELHGVRLLTDALELTLGVAPKENPLVILPAQETERAMEILKVLFNITYDSVKREVDEEDAALYRYLGTLLRHCVMADAAGDRTEEFHGHTVNLLGNLPLKCLDVLLALELHEGSLEFMGVNMDVINALLAFLEKRLHQTHRLKECVAPVLSVLTECARMHRPARKFLKAQVLPPLRDVRTRPEVGDLLRNKLVRLMTHLDTDVKRVAAEFLFVLCSESVPRFIKYTGYGNAAGLLAARGLMAGGRPEGQYSEDEDTDTEEYREAKASINPVTGRVEEKPPNPMEGMTEEQKEHEAMKLVNMFDKLSR
  binding: binds
